For 1 molecule, binding results are on record in PMC7480108.

No constants are given. Whether binding was seen depends on the method and setting. Binding seen in cells or lysates may run through a third protein. A result given as binding can be weak or reduced; the word gives no strength.

Assay [1] addresses TKS5^GFP (human). Description: co-IP; GFP-Trap (anti-GFP nanobody beads) from NP-40 lysates of MDA-MB-231 cells expressing GFP-tagged constructs, 1 h 4°C; immunoblotting of bound proteins. For orientation: Immunoblotting shows a protein as a band on a membrane.
Assay [2] deals with TKS5^GFPW861A (human). The description is as above.

B1: endogenous FGD1 (faciogenital dysplasia protein 1) (protein, UniProt P98174 1-961)
chain: MHGHRAPGGAGPSEPEHPATNPPGAAPPACADSDPGASEPGLLARRGSGSALGGPLDPQFVGPSDTSLGAAPGHRVLPCGPSPQHHRALRFSYHLEGSQPRPGLHQGNRILVKSLSLDPGQSLEPHPEGPQRLRSDPGPPTETPSQRPSPLKRAPGPKPQVPPKPSYLQMPRMPPPLEPIPPPPSRPLPADPRVAKGLAPRAEASPSSAAVSSLIEKFEREPVIVASDRPVPGPSPGPPEPVMLPQPTSQPPVPQLPEGEASRCLFLLAPGPRDGEKVPNRDSGIDSISSPSNSEETCFVSDDGPPSHSLCPGPPALASVPVALADPHRPGSQEVDSDLEEEDDEEEEEEKDREIPVPLMERQESVELTVQQKVFHIANELLQTEKAYVSRLHLLDQVFCARLLEEARNRSSFPADVVHGIFSNICSIYCFHQQFLLPELEKRMEEWDRYPRIGDILQKLAPFLKMYGEYVKNFDRAVELVNTWTERSTQFKVIIHEVQKEEACGNLTLQHHMLEPVQRIPRYELLLKDYLLKLPHGSPDSKDAQKSLELIATAAEHSNAAIRKMERMHKLLKVYELLGGEEDIVSPTKELIKEGHILKLSAKNGTTQDRYLILFNDRLLYCVPRLRLLGQKFSVRARIDVDGMELKESSNLNLPRTFLVSGKQRSLELQARTEEEKKDWVQAINSTLLKHEQTLETFKLLNSTNREDEDTPPNSPNVDLGKRAPTPIREKEVTMCMRCQEPFNSITKRRHHCKACGHVVCGKCSEFRARLVYDNNRSNRVCTDCYVALHGVPGSSPACSQHTPQRRRSILEKQASVAAENSVICSFLHYMEKGGKGWHKAWFVVPENEPLVLYIYGAPQDVKAQRSLPLIGFEVGPPEAGERPDRRHVFKITQSHLSWYFSPETEELQRRWMAVLGRAGRGDTFCPGPTLSEDREMEEAPVAALGATAEPPESPQTRDKT
For the molecule B1, the binding result in assay [1] and in assay [2] was “binds” each time.
